Test results published in patent US6903077, “Methods and products for delivering nucleic acids” (University of Vermont and State Agricultural College).
Results are given in words; binding and its absence hold for the method and conditions named. Some binding calls cover weakened binding; strength is not graded here. Tags and fused reporters may be left off the sequences shown.

Molecular target: T1, GST-Z2-P123 (Homo sapiens, UniProt Q9BWE0 SEQ:1-147)
T1 sequence: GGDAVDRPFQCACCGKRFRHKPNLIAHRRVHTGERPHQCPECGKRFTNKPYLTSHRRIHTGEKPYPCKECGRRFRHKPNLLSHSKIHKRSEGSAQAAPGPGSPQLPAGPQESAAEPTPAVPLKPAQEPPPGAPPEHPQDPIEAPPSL
Assay: Gel shift Multimers, self-association on DNA

B1: GST-Z2-P123 (protein, not shown: a dimerising Fc or GST)
chain: GGDAVDRPFQCACCGKRFRHKPNLIAHRRVHTGERPHQCPECGKRFTNKPYLTSHRRIHTGEKPYPCKECGRRFRHKPNLLSHSKIHKRSEGSAQAAPGPGSPQLPAGPQESAAEPTPAVPLKPAQEPPPGAPPEHPQDPIEAPPSL
With B1 the binding was “binds”.
